For at least one entry, the source does not settle the construct or the ends of the probe.
System: FgAreB GATA domain (FgAreBGATA-His)
Experiment: EMSA
Conditions: recombinant protein; protein details: His (pET32a); label: 3' biotin

Row | Sequence | binding result
1 | TCCAAGATTTTATCTTCCCGACTATTGTTCCACAGCAC (double strand) [FgNOR promoter WT probe] | binds
2 | TCTATCACGACATCTATAGATTTATCTCATCTACTACTACTATCT (double strand) [FgFHB1 promoter WT probe] | binds
3 | TGCGAGACTCTCTTATCTCCTCCTTCCGATAGTTCG (double strand) [FgGSNOR promoter WT probe] | binds
4 | TATTAGTGATTATCAATCTCATAGCAATGATTTGA (double strand) [FgFHB2 promoter WT probe] | binds
